PubChem BioAssay AID1224826 – NIAID – 2016
Aim: 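Knock-downs that raise or lower Tnf reporter signal after endotoxin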 (primary screen). Cells: RAW264.7 G9 macrophages from mouse bearing reporters for p65 (GFP) and the Tnf promoter (mCherry). Reagent: siRNA pool against mouse genes, 100 nM. Time to read-out: 16 h of LPS stimulation, after 2 days of siRNA transfection. Conditions: bacterial lipopolysaccharide (Salmonella minnesota R595), 10 ng/ml. Read-out: 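Nuclear mCherry signal of the Tnf promoter reporter measured by imaging after background removal, scaled to each plate median and turned into robust z-scores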. Scale: Tnf reporter robust z-score: higher = stronger Tnf promoter reporter signal after LPS; Tnf reporter intensity: higher = stronger Tnf promoter reporter signal. Rule for the call: 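Called active when robust z-score is at most -1.3, matching the median of the Tlr4 knock-down control, or over 3; control wells and wells with under 50 cells never active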. Meaning of the calls: active = Tnf reporter clearly lowered or raised; inactive = no clear change in Tnf reporter.
The whole screen tested about 17,000 reagents; shown is an unselected part. About 1,110 of them (6.6%) count as active. 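Active means lowered or raised reporter signal; replicate intensities are raw and not normalised per plate.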 Unmarked entries are inactive. The numbers tell different reagents against one gene apart. Not all columns of the deposit are shown.

no.	target gene	reagent no.	Tnf reporter robust z-score	fewer than 50 cells in well	Tnf reporter intensity, replicate 1
1	Srrm2 (GeneID 75956)	1	0.27	enough cells in well	296
2	Phf11d (GeneID 219132)	1	-0.86	enough cells in well	149
3	Kcne3 (GeneID 57442)	1	0.9	enough cells in well	258
4	Snx5 (GeneID 69178)	1	0.02	enough cells in well	273
5	Nnat (GeneID 18111)	1	1.46	enough cells in well	345
6	Eftud2 (GeneID 20624)	1	-1.43 (active)	enough cells in well	34.8
7	Mecom (GeneID 14013)	1	-0.51	enough cells in well	182
8	Mecom (GeneID 14013)	2	-0.51	enough cells in well	230
9	Fdps (GeneID 110196)	1	-1.46 (active)	enough cells in well	129
10	Or1ad1 (GeneID 258913)	1	1.36	enough cells in well	365
11	Clca3b (GeneID 229927)	1	0.11	enough cells in well	183
12	Fbn1 (GeneID 14118)	1	-0.05	enough cells in well	243
13	Gjb4 (GeneID 14621)	1	-0.41	enough cells in well	241
14	Ankrd46 (GeneID 68839)	1	1.14	enough cells in well	303
15	Lmbrd2 (GeneID 320506)	1	0.83	enough cells in well	233
16	Smco4 (GeneID 170748)	1	0.43	enough cells in well	215
17	Ppbp (GeneID 57349)	1	0.45	enough cells in well	230
18	Tmem69 (GeneID 230657)	1	-0.31	enough cells in well	121

5 successive records from above:
no.	target gene	reagent no.	Tnf reporter robust z-score	fewer than 50 cells in well	Tnf reporter intensity, replicate 1
1	Srrm2 (GeneID 75956)	1	0.27	enough cells in well	296
2	Phf11d (GeneID 219132)	1	-0.86	enough cells in well	149
3	Kcne3 (GeneID 57442)	1	0.9	enough cells in well	258
4	Snx5 (GeneID 69178)	1	0.02	enough cells in well	273
5	Nnat (GeneID 18111)	1	1.46	enough cells in well	345

The listing continues:
no.	target gene	reagent no.	Tnf reporter robust z-score	fewer than 50 cells in well	Tnf reporter intensity, replicate 1
19	Odc1 (GeneID 18263)	1	-0.46	enough cells in well	211
20	Or4c100 (GeneID 258523)	1	-0.18	enough cells in well	183
21	Cdkn2c (GeneID 12580)	1	0.92	enough cells in well	192
22	Oxt (GeneID 18429)	1	0.23	enough cells in well	274
23	Mrpl32 (GeneID 75398)	1	-1.21	enough cells in well	182
24	Prss12 (GeneID 19142)	1	-0.67	enough cells in well	95.2
25	Gm4736 (GeneID 100502592)	1	-0.56	enough cells in well	180
26	Pitpna (GeneID 18738)	1	0.11	enough cells in well	244
27	Arln (GeneID 67704)	1		fewer than 50 cells per well; well left out of calls	97.5
28	Tgm5 (GeneID 74176)	1	4.23 (active)	enough cells in well	279
29	Lrif1 (GeneID 321000)	1	2.25	enough cells in well	318
30	Mr1 (GeneID 15064)	1	0.65	enough cells in well	235
31	Klf16 (GeneID 118445)	1	-0.76	enough cells in well	174
32	Clca4a (GeneID 99663)	1	-0.79	enough cells in well	130
33	Atp11b (GeneID 76295)	1	0.21	enough cells in well	172
34	Or13c25 (GeneID 258836)	1	0	enough cells in well	185
35	Fsd1 (GeneID 240121)	1	-0.79	enough cells in well	123
36	Olfml2b (GeneID 320078)	1	-0.41	enough cells in well	150
37	Kif3c (GeneID 16570)	1	-0.27	enough cells in well	209
38	Tcp11l2 (GeneID 216198)	1	-1.48 (active)	enough cells in well	98
39	Pip5k1a (GeneID 18720)	1		fewer than 50 cells per well; well left out of calls	129
40	Cd5 (GeneID 12507)	1	-0.53	enough cells in well	179
